# Assay results

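Luminescence from an EWS-FLI1 target-promoter (NR0B1) reporter, set against a CMV-promoter reporter, two days after silencing single genes in TC32 Ewing sarcoma cells. Each siRNA was applied at 20 nM. A z-score of the log NR0B1-over-CMV signal, less the median of siRNAs with the same seed; more negative means a stronger specific loss of the NR0B1 reporter.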

This is part of the screen; most of the strongest results are not listed here. Sequences are the guide (antisense) strand, without overhang.

siRNA,target gene,seed-corrected z-score
UUGUCUCUAACUCACAGCC,LINC00471,0.9557
AAUAUUACCUCGUUGAGGU,DDIT4L,0.6693
AAUUCUCUCCUUGCACUCC,SYCE1,0.2008
UAUUGAAAUAUGAAGCUCC,DLEU7,0.6211
UUAGAGCUAAGUAGUCAUC,LVRN,0.1467
UAUUGGGUUAGGUCUAAAC,TARBP1,-0.2339
UUGGGCACAAUGACCAAGU,OR10A4,0.4366
UAGGAUGACACCCGUGUCC,UBASH3A,0.6228
UCUGGAACCACGGUUAGAG,SUPT16H,0.1301
UAUUCUCUAAAGAAACUAC,ATP7A,-0.2603
AAAAGUGUAGCGGAAGUCU,ADORA2B,0.4643
AACGGUCUCCAUCACAAUC,IKBKG,-0.9928
UACUUCUCCAUUUCACAUC,KLF5,-0.2692
UCGAUAUCCAGGCCUAGCU,KRT83,0.1627
UUUGUAACCAGGGUCCAUG,SUFU,-0.1828
UUCCGUUCAAGUUGGAAGG,ANGPT2,0.6111
AAGAUUUAUCCUUUGCUGC,HMGN1P21,1.571
AAUCUUCUCGCGACUGCUC,PPP1R12C,-0.6264
UCUGUGGUUCCUAGAGCGC,DUXAP10,-0.5574
UGAUCAUUAAGGCAUGAGG,ZNF561,-0.8889
AAAAAGACGAUUCCAAUUG,UBAC2,0.1686
UUAGUUGCACUCUCAUAUC,DIAPH1,-1.26
AAUCUUCCAAGGUUGUGUA,DDX19B,1.025
UUUACUGAGAUGACAUUUU,PRELID2,-0.2024
UAAACAUCCAACUUCUCAC,TRIM43,-0.05999
AAACUCACAAAGGAGCUCC,PROCR,-0.2428
UAUCGCAAAUGGAAAGUGG,HEATR1,-0.1226
UCAGUAUAUACAAUUUACG,HORMAD2,-0.09024
CACCCAUGCACUGAAGCUC,LOC440300,0.9253
UUAGUUUGUGCCUAUGUCC,TNKS2,0.3427
AAUGCUAUCUAGUUCUCGC,HAUS1,0.2094
UAUAAUGCUACCUCUAACU,FZD5,0.06386
UGACAUGGUAUGGAUCUGC,FAM209B,-1.262
UGUGCUCUCUAAGUCAGCC,C1RL-AS1,0.122
UUGCUAUCGAUACUGUUGG,ANKRD34C,0.2596
ACAGGAGGCACGGAGAUCU,DPYSL4,-0.3106
AUGCUUAUCAUGUCCGCUC,CD302,-0.5174
UACAGAUCGAAUAAGGUUC,IER3IP1,0.9842
UCCAAAAUUUCAGUCCUGC,WNT9B,0.5474
UAAUUGAUUUCUUGGGUUC,ZNF197,0.4338
UCUUUUCUGAGGGCGUCCA,HES4,-0.4025
ACCUUGUCAAAAUACUUGC,KIF7,-0.7519

Some entries from above, unchanged:

siRNA	target gene	seed-corrected z-score
CACCCAUGCACUGAAGCUC	LOC440300	0.9253
UUAGUUGCACUCUCAUAUC	DIAPH1	-1.26
UCCAAAAUUUCAGUCCUGC	WNT9B	0.5474

The results are deposited in PubChem (AID1159506; NCATS, 2015).